# At least one structure is not confirmed: it was looked up by name or label, or the drawing left a doubt.
# Test system: S-ADH from X. autotrophicus strain Py2
# Test: Secondary alcohol dehydrogenase NADH oxidation spectrophotometric assay
# Format: biochemical, Xanthobacter autotrophicus strain Py2
# Conditions: acetone at fixed saturating concentration
# Procedure: Assays were performed in 2 mL quartz cuvettes and contained NAD(H) (0.2 mM), potassium phosphate buffer (25 mM), and a source of enzyme (cell-free extracts, column fractions, or purified enzyme) in a total reaction volume of 1 mL at pH 6.2 ([…]) at 30° C. Assays were pre-incubated for 1.5 min. at 30° C. with all assay components except substrate. Assays were initiated by addition of substrate (2.5 mM) and monitored over time by measuring the change in absorbance at 340 nm (∈340 of 6.22 mM^−1·cm^−1 for NADH).
# Data analysis. Kinetic constants (Km and Vmax) were calculated by fitting initial rate data to the Michaelis-Menten equation and using the software KaleidaGraph Fourth Edition, (Synergy Software, Reading, Pa.).
smiles,measurement,value
"NC(=O)C1=CN([C@@H]2O[C@H](COP(=O)(O)OP(=O)(O)OC[C@H]3O[C@@H](n4cnc5c(N)ncnc54)[C@H](O)[C@@H]3O)[C@@H](O)[C@H]2O)C=CC1 [NADH, nicotinamide adenine dinucleotide, reduced form]",Km for NADH,approximately 5.1×0.4 μM

# — patent publication US7794994B2 (Kemeta, LLC, priority 2001, dated 2010)
